Results reported in the supplement of paper PMC8728848.
The other results are listed elsewhere or left out.

Experiments:
Assay in all cases: glycan array binding signal (z-score within array); higher = stronger binding
Conditions in all cases: glycan notation: IUPAC condensed, linker removed
[1] = target: Neu5Gc(a2-8)Neu5Gc(a2-3)Gal(b1-4)GlcNAc(b1-3)Gal(b1-4)GlcNAc
Procedure, shortened: (§1)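 Negative Z-scores can be read as non-binding. The Z-score is calculated within each array and then averaged across arrays of one protein sequence at different concentrations or buffers and across linkers. Arrays, 3228 in all, were curated from the Consortium for Functional Glycomics database and kept only where the protein sequence was available.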

[2] = target: Neu5Gc(a2-8)Neu5Gc(a2-6)Gal(b1-4)GlcNAc
Procedure, shortened: as §1

[3] = target: Neu5Gc(b2-6)Gal(b1-4)GlcNAc
Procedure, shortened: as §1

B1: AT1G80310(18) (Arabidopsis thaliana), Q0WP36 (protein)
chain: METTTTPLLPGDRSRCGWLRRRLRLKNPLSSELSGAVGDLGTFIPIVLTLTLVSNLDLSTTLIFTGFYNIATGLLFDIPMPVQPMKSIAAVAVSESPHLTPSQIAAAGASTAATLLLLGATGAMSFLYNIIPLPVVRGVQLSQGLQFAFTAIKYVRFNYDTATLKPSSSPRIWLGLDGLILALAALLFIILSTGSGNDREAEDGDLAETSSNESQSRRRRLRLLSSIPSALIVFALGLVLCFIRDPSIFKDLKFGPSKFHILRISWDDWKIGFLRAAIPQIPLSVLNSVIAVCKLSNDLFDKELSATTVSISVGVMNLIGCWFGAMPVCHGAGGLAGQYRFGARSGLSVIFLGIGKLIVGLVFGNSFVRILSQFPIGILGVLLLFAGIELAMASKDMNSKEDSFIMLVCAAVSMTGSSAALGFGCGVVLYLLLKLRTLDCSSVTLFSRSSDESQVDSEAAPRDV
glycan array binding signal (z-score) [1]: 0.547 | glycan array binding signal (z-score) [2]: 0.156 | glycan array binding signal (z-score) [3]: 1.44
